Some results were stated once for a whole list of compounds, not compound by compound.
System: CD8^+ T cells
Assay: In vitro human CD8^+ T cell priming with peptide-pulsed DC
Assay type: cell-based
Details: CD8^+ T cells of an HLA-A2.1-positive prostate cancer patient, peptide-pulsed autologous DC
Procedure: In vitro human CD8^+ T cell priming with DC. Elutriated monocytes and lymphocytes were obtained from HLA-A2.1-positive patients or normal donors. To prepare DC, monocytes were cultured at 10^6 cells/ml in complete medium containing human IL-4 (1000 units/ml) and human GM-CSF (1000 units/ml). On day 2 and 4, half of the media was exchanged. To mature the DC, CD40 ligand trimer (Immunex, Seattle, Wash.) was added at 1 μg/ml on day 4 or 5, and then further cultured for 2 or 3 days. Cells were harvested on day 7, and then pulsed with 10 μM of peptides for 2 hours before γ-irradiation. 1×10^5 peptide-pulsed DC and 2×10^6 autologous CD8^+ T cells were mixed and cultured in 24-well plates. 10 units/ml IL-2 was added on day 2 during restimulation. Cells were restimulated every 7-9 days approximately 4-7 cycles.

## FLRNFSLML (listed as Homo sapiens) [TARP-29-37]
  cycles of in vitro restimulation needed to detect peptide-specific CD8^+ T cells: at least 6 cycles

## FVFLRNFSL (listed as Homo sapiens) [TARP-27-35]
  cycles of in vitro restimulation needed to detect peptide-specific CD8^+ T cells: at least 6 cycles

— US8043623B2, “Immunogenic peptides for the treatment of prostate and breast cancer” (The Government of the United States of America as …, priority 2003, dated 2011)
